Primary screen of a compound library

Amino acid sequences for entries named in this document (tags omitted).
UniProt E9BF75, entry or part of it: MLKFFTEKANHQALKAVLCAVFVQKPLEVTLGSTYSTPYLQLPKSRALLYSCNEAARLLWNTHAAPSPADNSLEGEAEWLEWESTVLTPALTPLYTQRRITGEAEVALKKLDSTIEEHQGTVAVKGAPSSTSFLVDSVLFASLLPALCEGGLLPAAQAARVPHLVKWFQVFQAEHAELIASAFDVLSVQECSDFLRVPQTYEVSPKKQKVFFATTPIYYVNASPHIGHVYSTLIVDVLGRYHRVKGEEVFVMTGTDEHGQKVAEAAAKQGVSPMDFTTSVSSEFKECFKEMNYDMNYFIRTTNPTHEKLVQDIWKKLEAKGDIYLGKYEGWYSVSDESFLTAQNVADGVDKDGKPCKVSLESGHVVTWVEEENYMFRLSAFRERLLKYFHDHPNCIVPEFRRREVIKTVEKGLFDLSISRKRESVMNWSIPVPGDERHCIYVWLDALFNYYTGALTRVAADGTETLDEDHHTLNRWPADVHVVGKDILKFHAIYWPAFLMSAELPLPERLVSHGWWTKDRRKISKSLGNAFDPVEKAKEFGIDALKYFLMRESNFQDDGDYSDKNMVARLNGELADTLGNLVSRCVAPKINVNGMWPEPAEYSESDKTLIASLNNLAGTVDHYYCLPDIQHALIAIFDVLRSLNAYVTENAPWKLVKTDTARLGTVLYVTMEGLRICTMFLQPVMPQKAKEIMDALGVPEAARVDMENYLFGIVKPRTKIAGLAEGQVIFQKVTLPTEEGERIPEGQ

LdMetRS: 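Methionyl-tRNA synthetase (putative), Leishmania donovani (UniProt E9BF75). Primary screen of methionyl-tRNA synthetase; the read-out is not stated. The test concentration is not given. The values are filed as inhibition. About 68,000 compounds were tested under these conditions; 0.035% (about 24) showed 50% or more at least once.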
Mtb heat-shock: 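Assay on Mycobacterium tuberculosis, filed only as a heat shock assay from Cornell; the read-out is not stated. The concentration is filed as 10 mM, unlikely as a test dose, so the dose is not known. The record gives no direction; compounds that gave an IC50 in retests scored well above the rest, so higher reads as stronger inhibition. Size under these conditions: about 69,000 compounds, about 930 of them at 50% or above in at least one test.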

All values are in %. The controls that fix the scale are not given in the record; negative values are as filed. Compounds were drawn at random from those tested, without regard to their results.

For NC(=O)c1cccc(CCNC(=O)N2Cc3ccccc3C2)c1 the result was LdMetRS: 8.014%; Mtb heat-shock: 5.808%.
For O=C(CCc1ccncc1)N1CCCC(n2cccn2)C1 (centres undefined) the result was LdMetRS: 15.85%; Mtb heat-shock: -19.13%.
For COc1ccc(CNCC(C)Oc2ccccn2)cc1Br.Cl (centres undefined) the result was Mtb heat-shock: -3.687%.
For Cc1noc(Cl)c1CCC(=O)N1CCC(Nc2cccnn2)CC1 the result was LdMetRS: 14.25%; Mtb heat-shock: -5.665%.
For CC1(c2ccccc2)CCC(=O)N(CCN2CCCOC2=O)C1 (centres undefined) the result was LdMetRS: 17.83%; Mtb heat-shock: -16.68%.
For O=C(c1ccc(F)c(F)c1)N1CCCCC1c1nc[nH]n1 (centres undefined) the result was LdMetRS: 8.871%; Mtb heat-shock: -28.57%.
For [H][C@]12CC[C@]([H])(CN(Cc3ccc(F)cc3)C1)N(C(=O)Cc1cccnc1)C2 the result was Mtb heat-shock: -18.88%.
For COc1ncc(CN2CCOC(C)(C(=O)N3CCOCC3)C2)cn1 (centres undefined) the result was LdMetRS: 18.64%; Mtb heat-shock: -9.566%.
For Cc1cn2c(n1)C(CNCC1=Cc3cc(Cl)ccc3OC1)CCC2 (centres undefined) the result was LdMetRS: 16.94%; Mtb heat-shock: 99%.
For Cn1cc(CN2CCCC3(COCCN(c4cccnc4)C3)C2)cn1 (centres undefined) the result was LdMetRS: 14.43%.
For CC(C)(C)NC(=O)Cn1c(=O)n(Cc2ccco2)c2ncccc21 the result was LdMetRS: 8.706%; Mtb heat-shock: -9.228%.
For CCCS(=O)(=O)N1CCC2(CC1)CC(=O)N(Cc1cc(F)cc(F)c1)C2 the result was LdMetRS: 12.39%; Mtb heat-shock: 17.58%.
For COc1ccnc(N2CCN(C(=O)c3cnn(C)c3C3CC3)CC2)n1 the result was LdMetRS: 9.294%; Mtb heat-shock: 12.36%.
For O=C(CNC1(CCO)CCOCC1)Nc1ccc(F)cc1F the result was LdMetRS: 9.059%; Mtb heat-shock: -3.092%.
For O=C(NC1CCCC1)c1n[nH]c2c1CNCC2 the result was LdMetRS: 6.111%; Mtb heat-shock: -2.351%.
For COCC(=O)NCC1Cn2nnc(-c3ccncc3)c2CO1 (centres undefined) the result was LdMetRS: 10.78%.
For Cc1nc(N2CCN(C)CC2)ncc1C(=O)N1CC(C)(C)C(C)(O)C1 (centres undefined) the result was LdMetRS: 3.346%; Mtb heat-shock: -22.11%.
For CC(C)(C)c1n[nH]cc1CNC1CCC(O)CC1 (centres undefined) the result was LdMetRS: 21.05%; Mtb heat-shock: -3.318%.
For CCCN1CCCC1Cn1nc(C)cc1C (centres undefined) the result was LdMetRS: 15.79%; Mtb heat-shock: 3.071%.
For COCCCS(=O)(=O)N1CCN(Cc2cccn2C)CC1 the result was LdMetRS: -3.951%; Mtb heat-shock: -19%.
For Cc1cccc(CN2CCc3cc(C(=O)O)c(N(C)C)nc3CC2)n1 the result was LdMetRS: 15.62%.
For Cc1ccc(C(CNC(=O)c2cc(CC(C)C)nn2C)N(C)C)cc1 (centres undefined) the result was LdMetRS: 10.92%; Mtb heat-shock: 10.04%.
For CC(=O)N(C)CC(=O)Nc1cccc(N2CCN(CC3CC3)CC2)c1 the result was LdMetRS: 18.22%; Mtb heat-shock: 3.869%.
For Cn1ccnc1C(O)(CCNCc1ccc(Cl)o1)C(F)(F)F (centres undefined) the result was LdMetRS: 8.901%; Mtb heat-shock: -10.66%.
For CC(=O)NCC(=O)N1CCN(CCN(C)C)c2ncccc2C1 the result was LdMetRS: 7.692%.
For CN(Cc1ccccc1)CC(O)Cn1cnc2c(cnn2C)c1=O (centres undefined) the result was LdMetRS: 14.11%; Mtb heat-shock: 16.45%.
For Cc1[nH]ncc1CCCNC(=O)Nc1ccccc1 the result was LdMetRS: -0.5435%; Mtb heat-shock: -5.544%.
For O=C(O)C(F)(F)F.[H][C@]12CCCC(OC)[C@@]1([H])CN(Cc1csc(C)n1)C2 (some centres undefined) the result was Mtb heat-shock: 8.352%.
For Cc1cc2n(n1)[C@@H](C(F)(F)F)C[C@@H](C1CCN(C(=O)C3CC3)CC1)N2 the result was LdMetRS: 21.22%; Mtb heat-shock: -12.21%.
For Cc1c(CN2CCCC2(C)C(=O)N2CCOCC2)cnn1C (centres undefined) the result was LdMetRS: 14.56%; Mtb heat-shock: 12.57%.
For CN(Cc1ccco1)C(=O)CN1C(=O)c2cc(Cl)c(Cl)cc2C1=O the result was LdMetRS: 17.02%; Mtb heat-shock: -1.718%.
For COc1cccc(N2CC3(CCN(Cc4nccn4C)C3)CC2=O)c1 (centres undefined) the result was LdMetRS: 16.48%.
For Fc1cccc(CN2CCOC3(COCCN(CC4CC4)C3)C2)c1 (centres undefined) the result was LdMetRS: 14.99%.
For CCc1ncnc2c1CCN(Cc1cccs1)CC2.O=C(O)C(F)(F)F the result was Mtb heat-shock: -19.88%.
For CC1CN(CC(=O)N2CCOCC2)CCN1Cc1nccn1C (centres undefined) the result was LdMetRS: 20%; Mtb heat-shock: -27.63%.
For CN(CC1CCCCO1)S(=O)(=O)c1cccc(C(=O)N2CCOCC2)c1 (centres undefined) the result was LdMetRS: 17.2%; Mtb heat-shock: -12.43%.
For Cc1noc(C)c1C(=O)N1CCCC(c2cc(C(F)(F)F)[nH]n2)C1 (centres undefined) the result was LdMetRS: 0.5587%; Mtb heat-shock: -20.4%.
For O=C(Cc1cccc(F)c1)NCCNCc1ccco1 the result was LdMetRS: 7.692%; Mtb heat-shock: 3.82%.
For N#CCCN(Cc1ccco1)C(=O)CCCNC(=O)c1ccccc1 the result was LdMetRS: 7.904%; Mtb heat-shock: -9.303%.
For O=C(COCc1nc(-c2ccncc2)no1)N1CCOCC1 the result was LdMetRS: 3.722%; Mtb heat-shock: 0.9147%.
For Cc1nc(-c2cnn(C)c2)sc1C(=O)NCc1ccc(C)n1C the result was LdMetRS: 15.36%; Mtb heat-shock: 6.842%.
For COc1ccc(CC(=O)N2CCC(Nc3ccc(C)nn3)CC2)cc1 the result was LdMetRS: 19.94%; Mtb heat-shock: -0.6313%.
For CC(C(=O)NCc1ccnc(N2CCN(C)CC2)c1)n1cccn1 (centres undefined) the result was LdMetRS: 11.22%; Mtb heat-shock: -1.924%.
For c1cnnc(N2CCCC2CNCc2nc(-c3ccco3)no2)c1 (centres undefined) the result was LdMetRS: 21.2%; Mtb heat-shock: 13.72%.

Repeated from the top, 5 entries:

- NC(=O)c1cccc(CCNC(=O)N2Cc3ccccc3C2)c1 : LdMetRS: 8.014%; Mtb heat-shock: 5.808%
- O=C(CCc1ccncc1)N1CCCC(n2cccn2)C1 (centres undefined) : LdMetRS: 15.85%; Mtb heat-shock: -19.13%
- COc1ccc(CNCC(C)Oc2ccccn2)cc1Br.Cl (centres undefined) : Mtb heat-shock: -3.687%
- Cc1noc(Cl)c1CCC(=O)N1CCC(Nc2cccnn2)CC1 : LdMetRS: 14.25%; Mtb heat-shock: -5.665%
- CC1(c2ccccc2)CCC(=O)N(CCN2CCCOC2=O)C1 (centres undefined) : LdMetRS: 17.83%; Mtb heat-shock: -16.68%

Data taken from ChEMBL document CHEMBL3988442, “University of Dundee, Small-Polar-MMV Screening Library” (2021).